Laboratory results as given in PubChem BioAssay AID1259354 (Paczesny and Yang Labs, IUPUI and University of Michigan, 2018).
Hit rate of the full screen: of about 78,000 compounds, about 1,800 (2.3%) were called active. The inconclusive results got no clear call from the source; some entries with a clear call stand among them for comparison. No stated cut-off is given here; in the data, active means inhibition above about 30%; inconclusive means mostly about 10% to 28%; inactive means weaker than that.

Amino acid sequences for entries named in this document (tags omitted). A change or cut given only in a name is not applied to a line headed by its entry.
UniProt Q01638: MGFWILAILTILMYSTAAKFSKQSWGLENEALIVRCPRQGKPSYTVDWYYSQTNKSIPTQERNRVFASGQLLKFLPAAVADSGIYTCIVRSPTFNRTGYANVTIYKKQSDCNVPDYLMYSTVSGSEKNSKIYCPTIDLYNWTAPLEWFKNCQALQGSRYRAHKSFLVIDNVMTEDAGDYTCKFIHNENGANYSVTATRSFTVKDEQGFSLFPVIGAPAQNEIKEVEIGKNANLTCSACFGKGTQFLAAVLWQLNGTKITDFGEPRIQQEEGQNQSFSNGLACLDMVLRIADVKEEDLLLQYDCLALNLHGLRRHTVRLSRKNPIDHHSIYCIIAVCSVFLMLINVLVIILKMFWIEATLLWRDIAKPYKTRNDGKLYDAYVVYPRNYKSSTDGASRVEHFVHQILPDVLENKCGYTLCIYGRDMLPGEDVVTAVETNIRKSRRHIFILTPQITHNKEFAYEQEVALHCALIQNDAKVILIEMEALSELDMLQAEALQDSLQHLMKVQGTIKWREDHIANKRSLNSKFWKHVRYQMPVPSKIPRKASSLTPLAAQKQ

molecular target: Interleukin-1 receptor-like 1 (Homo sapiens) (UniProt Q01638); test: blocks human ST2 binding to IL-33, primary screen, biochemical, AlphaLISA (AID 1259354); settings: AlphaLISA ST2-Fc/biotin-IL-33 interaction, 1 h; at 17 µM, hits give high values

Row | Compound | inhibition
1 | O=S1(=O)CCC2CC=CCC21 (stereo unspecified) | inconclusive: 13%
2 | C=C(C)CN(CC)C(=O)CC1C(=O)NCCN1CC1CCCCC1 (stereo unspecified) | inconclusive: 24%
3 | Cc1ccc2nc(-c3cccc(N=Cc4cc([N+](=O)[O-])ccc4O)c3)oc2c1 | inconclusive: 23%
4 | O=C1C2C3C=CC(C3)C2C(=O)N1c1cccc(-c2nc3ccccc3c(=O)o2)c1 (stereo unspecified) | inconclusive: 13%
5 | CN(C)c1cccc(Oc2nnnn2[C@H]2CO[C@H]3[C@@H]2OC[C@@H]3NC(=S)NC2CCCCC2)c1 | inconclusive: 16%
6 | O=C(c1scc2c1OCCO2)N1CCc2[nH]nc(-c3ccccc3)c2C1 | inconclusive: 11%
7 | O=Nc1c(-c2c(O)[nH]c3cc(Br)ccc23)[nH]c2ccccc12 | inconclusive: 26%
8 | Cc1ccc(C(=O)Nc2cccc(-c3nc4ncccc4o3)c2C)cc1C | inactive
9 | Cn1c(=O)c2c(SCC(=O)N3CCc4ccccc43)nc(-c3ccco3)nc2n(C)c1=O | inconclusive: 17%
10 | CCN(CC)C(=O)c1ccc2c(Cl)c3c(nc2c1)CCCC3 | inactive
11 | CCOCc1cnc(C)nc1NCC(=O)c1c(C)[nH]c2ccccc12 | inconclusive: 14%
12 | CCc1ccc(NC(=O)c2cc3cc(Br)ccc3oc2=O)cc1 | inconclusive: 17%
13 | CCOc1ccccc1OCCOc1ccc([N+](=O)[O-])cc1 | inconclusive: 10%
14 | CC1(C)CC(=O)C2=C(C1)N(c1cccc(Br)c1)C(N)=C(C#N)C2c1ccsc1 (stereo unspecified) | inactive
15 | CCCc1c(C)c(C#N)c2[nH]c3ccccc3n2c1=O | inconclusive: 15%
16 | CN(C)c1ccc(C(=O)N[C@H]2CO[C@H]3[C@@H]2OC[C@@H]3n2cc(-c3ccccn3)nn2)cc1 | inconclusive: 13%
17 | O=[N+]([O-])c1ccc(NCc2ccco2)c(F)c1 | inconclusive: 28%
18 | Cc1ccc(-c2nnc([C@H]3CCN(C(=O)COc4ccccc4)C3)o2)cc1 | inconclusive: 10%
19 | O=C(CSc1nc2c(sc3ccccc32)c(=O)n1CCO)c1ccccc1 | inconclusive: 24%
20 | O=C1CCc2cc(S(=O)(=O)N3CCN(S(=O)(=O)c4cccc(F)c4)CC3)cc3c2N1CC3 | inconclusive: 15%
21 | COc1cccc(CN2CC(C(=O)N(C)Cc3nc4ccc(F)cc4[nH]3)CCC2=O)c1 (stereo unspecified) | inactive

3 entries out of the list, arranged by number of heavy atoms, ascending.
Row | Compound | inhibition
10 | CCN(CC)C(=O)c1ccc2c(Cl)c3c(nc2c1)CCCC3 | inactive
8 | Cc1ccc(C(=O)Nc2cccc(-c3nc4ncccc4o3)c2C)cc1C | inactive
20 | O=C1CCc2cc(S(=O)(=O)N3CCN(S(=O)(=O)c4cccc(F)c4)CC3)cc3c2N1CC3 | inconclusive: 15%

Remaining list, next part.

Row | Compound | inhibition
22 | Cc1cccc(-c2noc([C@@H]3Cc4nc[nH]c4CN3C(=O)NC(C)C)n2)c1 | inconclusive: 10%
23 | CC(C)(C)c1ncc2c(n1)CN(C(=O)c1ccc3nc[nH]c3c1)C2 | inconclusive: 19%
24 | O=C(NC1CCCCCC1)C1CCNCC1 | inactive
25 | O=C1C2CC=CCC2C(=O)N1c1ccc(F)cc1Cl (stereo unspecified) | inactive
26 | COc1ccc(Cl)cc1NC(=O)c1cnc2n(c1=O)CCS2 | inconclusive: 12%
27 | COc1ccc(N2CCN(C(c3ccc(C)cc3)c3sc4nc(C)nn4c3O)CC2)cc1 (stereo unspecified) | inconclusive: 15%
28 | CCCCc1ncc(CN2CCN(c3ncnc4ccccc34)CC2)[nH]1 | inconclusive: 22%
29 | O=C(NCCc1c[nH]c2ccccc12)c1cn(Cc2ccccc2Cl)nn1 | inactive
30 | O=C1Nc2ccccc2/C1=C/c1nc2ccccc2c(=O)n1-c1ccccc1[N+](=O)[O-] | inconclusive: 13%
31 | COc1ncccc1C(=O)NCCC(=O)Nc1cccc(C)c1 | inconclusive: 21%
32 | O=C(COc1cc(Cl)ccc1Cl)Nc1ncn[nH]1 | inconclusive: 12%
33 | C/C(=C\c1cc(Cl)ccc1O)CN(C)Cc1noc(C)n1 | inactive
34 | CC1=NN(c2cc(C)nc(-c3ccccc3O)n2)C(=O)C1 | inconclusive: 28%
35 | Cc1cc(N2CCCC2)nc2ccc(NC(=O)CCC(=O)Nc3ccc(F)cc3)cc12 | inconclusive: 23%
36 | Cc1cc(C=Nc2ccc(-c3nc4ccccc4o3)c(O)c2)c(O)c([N+](=O)[O-])c1 | active: 30%
37 | CCc1nc([C@@H]2C[C@H](NC(=O)c3ccccc3)C[C@H](C(C)C)O2)c(C)[nH]1 | inconclusive: 20%
38 | O=[N+]([O-])c1cc(C=Nc2ccc3nc(-c4cccc(F)c4)oc3c2)c(O)c([N+](=O)[O-])c1 | inconclusive: 16%
39 | O=C(CSc1ccccc1)N1CCN(c2ccc([N+](=O)[O-])cc2)CC1 | inconclusive: 16%
40 | Cc1cccc(NC(=O)c2cccc(S(=O)(=O)N3CCOCC3)c2)c1 | inactive
41 | CC(C)=CCn1c(N2CCN(C)CC2)nc2c1c(=O)[nH]c(=O)n2C | inactive
42 | Cc1ccc(-n2c(CN3CCCCC3)n[nH]c2=O)cc1C | inconclusive: 21%

Row | Compound | inhibition
43 | Brc1c(Br)c(Br)c2n[nH]nc2c1Br | inconclusive: 16%
44 | Cc1cc(N(C)C)nc(Nc2ccc(NC(=O)C(C)(C)C)cc2)n1 | inconclusive: 24%
45 | C=CCSc1nnc2c(n1)OC(c1ccc(OC)cc1OC)N(C(C)=O)c1ccccc1-2 (stereo unspecified) | active: 30%
46 | C=CCc1cccc(C=Nc2ccc(Cl)cn2)c1O | inconclusive: 16%
47 | Nc1c(Nc2ccc(F)cc2)c2ccccc2oc1=O | inconclusive: 16%
48 | O=C(NCc1cccs1)c1cc(-c2ccc(F)cc2)on1 | inactive
49 | CCC(C)c1ccc(NC(=O)COC)cc1 (stereo unspecified) | inactive
50 | O=C(CCCn1ccnc1)N1CCOC(c2ccc(Cl)c(Cl)c2)C1 (stereo unspecified) | inconclusive: 11%
51 | Cc1nc(N2CCC(N3CCCCC3)CC2)nc2ccccc12 | inactive
52 | Cc1ccc2[nH]c3c(c2c1)CCCC3NCc1ccc(F)cc1 (stereo unspecified) | active: 32%
53 | COCCN(Cc1cccs1)C(=O)c1ccc2[nH]ccc2c1 | inconclusive: 11%
54 | COc1ccc(N2CCN(Cc3ccc(Br)s3)CC2)cc1 | active: 39%
55 | CCOc1c(Nc2ccc(CC)cc2)c(=O)c1=O | inactive
56 | Cn1cncc1-c1nnc([C@H]2CCN(Cc3ccc(C(=O)O)cc3)C2)o1 | inconclusive: 13%
57 | O=C1OC(c2ccc(Cl)cc2Cl)=N/C1=C/c1ccco1 | inactive
58 | CCOC(=O)CCNC(=O)N1CCCC(Nc2ccc3c(c2)OCO3)C1 (stereo unspecified) | inactive
59 | CCOc1ccc(-n2c(SCC(N)=O)nc3c([nH]c4ccccc43)c2=O)cc1 | inconclusive: 27%
60 | Cc1ccccc1C1=N/C(=C\C=C\c2ccccc2)C(=O)O1 | active: 42%
61 | N#Cc1c(-c2ccccc2)nc(N2CCCCC2)[nH]c1=O | inconclusive: 12%

Some of the entries so far, with tabs.
Row	Compound	inhibition
43	Brc1c(Br)c(Br)c2n[nH]nc2c1Br	inconclusive: 16%
44	Cc1cc(N(C)C)nc(Nc2ccc(NC(=O)C(C)(C)C)cc2)n1	inconclusive: 24%
45	C=CCSc1nnc2c(n1)OC(c1ccc(OC)cc1OC)N(C(C)=O)c1ccccc1-2 (stereo unspecified)	active: 30%
46	C=CCc1cccc(C=Nc2ccc(Cl)cn2)c1O	inconclusive: 16%
47	Nc1c(Nc2ccc(F)cc2)c2ccccc2oc1=O	inconclusive: 16%
48	O=C(NCc1cccs1)c1cc(-c2ccc(F)cc2)on1	inactive
49	CCC(C)c1ccc(NC(=O)COC)cc1 (stereo unspecified)	inactive
50	O=C(CCCn1ccnc1)N1CCOC(c2ccc(Cl)c(Cl)c2)C1 (stereo unspecified)	inconclusive: 11%
51	Cc1nc(N2CCC(N3CCCCC3)CC2)nc2ccccc12	inactive
52	Cc1ccc2[nH]c3c(c2c1)CCCC3NCc1ccc(F)cc1 (stereo unspecified)	active: 32%
53	COCCN(Cc1cccs1)C(=O)c1ccc2[nH]ccc2c1	inconclusive: 11%
54	COc1ccc(N2CCN(Cc3ccc(Br)s3)CC2)cc1	active: 39%
55	CCOc1c(Nc2ccc(CC)cc2)c(=O)c1=O	inactive
56	Cn1cncc1-c1nnc([C@H]2CCN(Cc3ccc(C(=O)O)cc3)C2)o1	inconclusive: 13%
57	O=C1OC(c2ccc(Cl)cc2Cl)=N/C1=C/c1ccco1	inactive
58	CCOC(=O)CCNC(=O)N1CCCC(Nc2ccc3c(c2)OCO3)C1 (stereo unspecified)	inactive
59	CCOc1ccc(-n2c(SCC(N)=O)nc3c([nH]c4ccccc43)c2=O)cc1	inconclusive: 27%
